Reference: PMC6457497, “The H3K27me3 demethylase REF6 promotes leaf senescence through directly activating major senescence regulatory and functional genes in Arabidopsis”
The exact form of at least one protein or probe is not confirmed. No signal at the amounts used counts as a negative. At least one verdict was read from the data and is not stated in words by the source. Protein sequences can lack the tags named with them.

Molecular target: T1, GST-REF6C (C2H2 ZnF domain) (Arabidopsis thaliana) (UniProt Q9STM3)
T1 sequence (looked up): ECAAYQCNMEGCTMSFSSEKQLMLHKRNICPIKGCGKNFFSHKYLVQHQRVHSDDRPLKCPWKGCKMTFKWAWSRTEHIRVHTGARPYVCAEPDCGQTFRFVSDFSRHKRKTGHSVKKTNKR
Assay: EMSA
Settings: Light Shift EMSA kit binding buffer (composition, salt, pH not stated), poly(dI-dC), 4 ug protein in 20 ul, room temperature 30 min; recombinant protein; residues 1239-1360; protein details: N-terminal GST; label: biotin

Row | Sequence | binding result
1 | AAAGGAGTCTAAAAAAAATTAGTGGCGT / ACGCCACTAAATTTTTTTTTACTCCTTT [NYE1 mutant probe] | no binding
2 | CAAAAAGGGTAAAAAAAATTAGTTATTA / TAATAACTAAATTTTTTTCCCTTTTTG [NYE2 mutant probe] | no binding
